# Screening data, single-dose tests

Results are given as percent effect.
The record does not define 0% and 100%; most values in the screen are far below 50% and negative numbers occur (in some assays of this library far below -100).
The compounds are a random part of those screened.

T. brucei: 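Whole-parasite assay of Trypanosoma brucei over 72 hours; the read-out is not stated. Compounds at 30 µM. Direction is inferred from retests: higher values go with stronger inhibition. Values scatter widely below zero; nearly all retest evidence comes from the higher of the two concentrations used. Size under these conditions: about 64,000 compounds, about 940 of them at 50% or above in at least one test.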
Toxoplasma: 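Assay of Toxoplasma gondii numbers, read through their beta-galactosidase reporter with a colour substrate. Concentration: 10 µM. Higher reads as fewer parasites (inferred from which compounds were picked for retests). Size under these conditions: about 67,000 compounds, about 260 of them at 50% or above in at least one test.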

structure: Cc1cnn(CC2CN(Cc3cccc(OC(C)C)c3)CCO2)c1 (stereo not drawn)
T. brucei: 8.478%
Toxoplasma: 12.28%

structure: Cc1cccc(-c2noc(Cn3nc(C(N)=O)ccc3=O)n2)c1
T. brucei: -25.42%
Toxoplasma: 19.97%

structure: CC(=O)N1CCC(NC(=O)CN2CCCc3c(F)ccc(C)c32)CC1
T. brucei: -2.634%
Toxoplasma: 6.621%

structure: CC(C)Nc1nc2c(cc1C(=O)O)CCN(Cc1ccsc1)CC2.O=C(O)C(F)(F)F.O=C(O)C(F)(F)F
T. brucei: -2.438%
Toxoplasma: 12.16%

structure: CCc1ncc(C(=O)N2CCOCC2c2c(C)n[nH]c2C)s1 (stereo not drawn)
T. brucei: -9.73%
Toxoplasma: -3.534%

structure: N#Cc1ccc(CNC(=O)C2=NN(c3ccccc3)C(=O)CN2)cc1
T. brucei: -22.79%
Toxoplasma: 3.884%

structure: COc1ccc(C2=CCN(C(=O)CN(C)Cc3ccoc3)CC2)cc1
T. brucei: 23.27%

structure: CN(C)CCN(Cc1ccc(C(F)(F)F)cc1)C(=O)c1cc[nH]n1
T. brucei: -34.01%
Toxoplasma: -4.298%

structure: N[C@H]1CN(C(=O)CCc2cc(Cl)no2)C[C@@H]1c1ccccc1
T. brucei: -18.76%
Toxoplasma: 8.732%

structure: CCc1nc(CN2CCN(C(=O)COCc3ccccc3)CC2)no1
T. brucei: 12.47%
Toxoplasma: 0.9038%

structure: Cc1cccc(C(C)C)c1NC(=O)NCCN(C(C)C)C(C)C
T. brucei: -47.22%
Toxoplasma: 23.19%

structure: CC(C#N)CNC(=O)Nc1ccc(-c2cc[nH]n2)cc1 (stereo not drawn)
T. brucei: 6.9%
Toxoplasma: 9.493%

structure: Cc1nc(C2CCCN2C(=O)CCc2ccccc2)ncc1C(N)=O (stereo not drawn)
T. brucei: 6.849%
Toxoplasma: -13.82%

structure: CN(CC(=O)N1CCN(c2cnccn2)CC1)c1ccc(Cl)cn1
T. brucei: -3.688%
Toxoplasma: 13.07%

structure: CS(=O)(=O)NCC1CCCCN1C(=O)c1ccsc1 (stereo not drawn)
T. brucei: -13.23%
Toxoplasma: -1.848%

structure: O=C(C1CC1)N1CC2(CCNCC2)c2cc(F)ccc21.O=C(O)C(F)(F)F
T. brucei: -21.43%
Toxoplasma: -11.38%

structure: O=C(O)C(F)(F)F.O=C(O)C(F)(F)F.[H][C@@]12CN(CCOC)CCO[C@]1([H])CN(S(=O)(=O)c1cccnc1)C2
T. brucei: -14.72%
Toxoplasma: -36.23%

structure: CN1CCC/C1=N\S(=O)(=O)c1ccc(NC(=O)CCc2cccs2)cc1
T. brucei: 3.723%
Toxoplasma: -2.447%

structure: O=S(=O)(CCCNCCn1cccn1)c1ccccc1
T. brucei: -31.92%
Toxoplasma: -28.3%

structure: N#Cc1ccc(-c2nnc(CSCCN3CCOCC3)o2)cc1
T. brucei: -9.238%
Toxoplasma: 3.308%

structure: Cc1cc(O)nc(C2CN(CC3(O)CCOCC3)CCO2)n1 (stereo not drawn)
T. brucei: -8.959%
Toxoplasma: 12.74%

structure: Cc1nonc1C(=O)N1CCCC(c2ncncc2-c2ccncc2)C1 (stereo not drawn)
T. brucei: 18.18%
Toxoplasma: -0.9429%

structure: COc1ccc(C(=O)NC2CC2)c(OC2CCN(CC3CC3)CC2)c1
T. brucei: -4.113%
Toxoplasma: 7.226%

structure: O=C(O)C(F)(F)F.[H][C@@]12COC[C@@H](CC(=O)N3CCOCC3)[C@]1([H])CN(Cc1ccc(F)cc1)C2
T. brucei: -34.48%
Toxoplasma: -6.216%

structure: O=C(CCNc1ncccn1)Nc1cc(C(F)(F)F)c[nH]c1=O
Toxoplasma: 13.97%

structure: Cc1cc(CNC(=O)N2CCN(c3ccccc3)CC2)no1
T. brucei: -2.68%
Toxoplasma: -3.741%

structure: O=C(c1cscn1)N(CCCO)S(=O)(=O)c1cccs1
T. brucei: 1.147%
Toxoplasma: 11.24%

structure: O=C(C1CCOC1)N1CCc2ncnc(-c3cccnc3)c2CC1 (stereo not drawn)
T. brucei: -18.62%
Toxoplasma: 5.049%

structure: CCc1nccn1C1CCCN(C(=O)c2cc3nc(C)ccc3o2)C1 (stereo not drawn)
T. brucei: -29.41%
Toxoplasma: 2.7%

structure: [H][C@@]12CCN(C(=O)c3occc3C)C[C@@]1([H])O[C@@H](c1nnc(C3CC3)o1)C2
T. brucei: -67.04%
Toxoplasma: -10.18%

Once more, the final 2:

* CCc1nccn1C1CCCN(C(=O)c2cc3nc(C)ccc3o2)C1 (stereo not drawn) | T. brucei: -29.41%; Toxoplasma: 2.7%
* [H][C@@]12CCN(C(=O)c3occc3C)C[C@@]1([H])O[C@@H](c1nnc(C3CC3)o1)C2 | T. brucei: -67.04%; Toxoplasma: -10.18%

Source: ChEMBL document CHEMBL3988442, “University of Dundee, Small-Polar-MMV Screening Library” (2021).